Test results published in patent JP2007530675A.
No constants are given. Whether binding was seen depends on the method and setting. Some entries that bind do so weakly or less than the wild type. Where a sequence is shown, tags or fusion partners need not be part of it.

Assays:
[1] = biological target: hu50/mu50 chimeric CS1-Fc (human/mouse chimera; human) [IgG part: P01857]; experiment: sandwich ELISA, captured chimeric CS1-Fc
[2] = biological target: human CS1 extracellular domain (amino acids 1-227)-Fc (human) [IgG part: P01857]; experiment: sandwich ELISA, captured human CS1-Fc, 2 μg/ml antibody

B1: Luc90 (antibody, V domains shown)
VH: QVQLQQPGAELVRPGASVKLSCKASGYSFTTYWMNWVKQRPGQGLEWIGMIHPSDSETRLNQKFKDKATLTVDKSSSTAYMQLSSPTSEDSAVYYCARSTMIATRAMDYWGQGTSVTVSS
VL: DIVMTQSQKSMSTSVGDRVSITCKASQDVITGVAWYQQKPGQSPKLLIYSASYRYTGVPDRFTGSGSGTDFTFTISNVQAEDLAVYYCQQHYSTPLTFGAGTKLELK
binding [1]: binds
binding [2]: binds

B2: Luc34 (antibody, V domains shown)
VH: QVQLQQSGAELARPGASVKLSCKASGYTFTSYWMQWVKQRPGQGLEWIGAIYPGDGDTRYTQKFKGKATLTADKSSSTAYMQLSSLASEDSAVYYCARGKVYYGSNPFAYWGQGTLVTVSA
VL: DIQMTQSSSYLSVSLGGRVTITCKASDHINNWLAWYQQKPGNAPRLLISGATSLETGVPSRFSGSGSGKDYTLSITSLQTEDVATYYCQQYWSTPWTFGGGTKLEIK
binding [1]: binds
binding [2]: binds

B3: Luc69 (antibody, V domains shown)
VH: QVQLQQSGPELVKPGASVKISCKASGYAFSNSWMNWVKQRPGQGLEWIGRIYPGDGDTKSNGKFKGKATLTADKSSRAAYMQLSSLTSVDSAVYFCARSTMIMTGAMDYWGQGTSVTVSS
VL: DIVMTQSHKFMSTSVGDRVIITCKASQDVSTAVAWYQQKPGQSPKLLIYSASFRYTGVPDRFTGSGSGTDFTFTVSSVQAEDLAVYYCQQHYSTPPYTFGGGTKLEIK
binding [1]: binds
binding [2]: binds
